Consider eleven molecules from publication PMC5841321.

To fix the notation:
B1: U4/U6 small nuclear ribonucleoprotein Prp4 (protein, UniProt O43172 1-522)
chain: MASSRASSTQATKTKAPDDLVAPVVKKPHIYYGSLEEKERERLAKGESGILGKDGLKAGIEAGNINITSGEVFEIEEHISERQAEVLAEFERRKRARQINVSTDDSEVKACLRALGEPITLFGEGPAERRERLRNILSVVGTDALKKTKKDDEKSKKSKEEYQQTWYHEGPNSLKVARLWIANYSLPRAMKRLEEARLHKEIPETTRTSQMQELHKSLRSLNNFCSQIGDDRPISYCHFSPNSKMLATACWSGLCKLWSVPDCNLLHTLRGHNTNVGAIVFHPKSTVSLDPKDVNLASCAADGSVKLWSLDSDEPVADIEGHTVRVARVMWHPSGRFLGTTCYDRSWRLWDLEAQEEILHQEGHSMGVYDIAFHQDGSLAGTGGLDAFGRVWDLRTGRCIMFLEGHLKEIYGINFSPNGYHIATGSGDNTCKVWDLRQRRCVYTIPAHQNLVTGVKFEPIHGNFLLTGAYDNTAKIWTHPGWSPLKTLAGHEGKVMGLDISSDGQLIATCSYDRTFKLWMAE
B2: Ribosome biogenesis protein BRX1 homolog (protein, UniProt Q8TDN6 1-353)
chain: MAATKRKRRGGFAVQAKKPKRNEIDAEPPAKRHATAEEVEEEERDRIPGPVCKGKWKNKERILIFSSRGINFRTRHLMQDLRMLMPHSKADTKMDRKDKLFVINEVCEMKNCNKCIYFEAKKKQDLYMWLSNSPHGPSAKFLVQNIHTLAELKMTGNCLKGSRPLLSFDPAFDELPHYALLKELLIQIFSTPRYHPKSQPFVDHVFTFTILDNRIWFRNFQIIEEDAALVEIGPRFVLNLIKIFQGSFGGPTLYENPHYQSPNMHRRVIRSITAAKYREKQQVKDVQKLRKKEPKTLLPHDPTADVFVTPAEEKPIEIQWVKPEPKVDLKARKKRIYKRQRKMKQRMDSGKTK
B3: Ribose-phosphate pyrophosphokinase 2 (protein, UniProt P11908 1-318)
chain: MPNIVLFSGSSHQDLSQRVADRLGLELGKVVTKKFSNQETSVEIGESVRGEDVYIIQSGCGEINDNLMELLIMINACKIASSSRVTAVIPCFPYARQDKKDKSRAPISAKLVANMLSVAGADHIITMDLHASQIQGFFDIPVDNLYAEPAVLQWIRENIAEWKNCIIVSPDAGGAKRVTSIADRLNVEFALIHKERKKANEVDRMVLVGDVKDRVAILVDDMADTCGTICHAADKLLSAGATKVYAILTHGIFSGPAISRINNAAFEAVVVTNTIPQEDKMKHCTKIQVIDISMILAEAIRRTHNGESVSYLFSHVPL
B4: Phosphoribosyl pyrophosphate synthase-associated protein 1 (protein, UniProt Q14558 1-356)
chain: MNAARTGYRVFSANSTAACTELAKRITERLGAELGKSVVYQETNGETRVEIKESVRGQDIFIIQTIPRDVNTAVMELLIMAYALKTACARNIIGVIPYFPYSKQSKMRKRGSIVCKLLASMLAKAGLTHIITMDLHQKEIQGFFSFPVDNLRASPFLLQYIQEEIPNYRNAVIVAKSPDAAKRAQSYAERLRLGLAVIHGEAQCTELDMDDGRHSPPMVKNATVHPGLELPLMMAKEKPPITVVGDVGGRIAIIVDDIIDDVESFVAAAEILKERGAYKIYVMATHGILSAEAPRLIEESSVDEVVVTNTVPHEVQKLQCPKIKTVDISLILSEAIRRIHNGESMAYLFRNITVDD
B5: U4/U6 small nuclear ribonucleoprotein Prp3 (protein, UniProt O43395 1-683)
chain: MALSKRELDELKPWIEKTVKRVLGFSEPTVVTAALNCVGKGMDKKKAADHLKPFLDDSTLRFVDKLFEAVEEGRSSRHSKSSSDRSRKRELKEVFGDDSEISKESSGVKKRRIPRFEEVEEEPEVIPGPPSESPGMLTKLQIKQMMEAATRQIEERKKQLSFISPPTPQPKTPSSSQPERLPIGNTIQPSQAATFMNDAIEKARKAAELQARIQAQLALKPGLIGNANMVGLANLHAMGIAPPKVELKDQTKPTPLILDEQGRTVDATGKEIELTHRMPTLKANIRAVKREQFKQQLKEKPSEDMESNTFFDPRVSIAPSQRQRRTFKFHDKGKFEKIAQRLRTKAQLEKLQAEISQAARKTGIHTSTRLALIAPKKELKEGDIPEIEWWDSYIIPNGFDLTEENPKREDYFGITNLVEHPAQLNPPVDNDTPVTLGVYLTKKEQKKLRRQTRREAQKELQEKVRLGLMPPPEPKVRISNLMRVLGTEAVQDPTKVEAHVRAQMAKRQKAHEEANAARKLTAEQRKVKKIKKLKEDISQGVHISVYRVRNLSNPAKKFKIEANAGQLYLTGVVVLHKDVNVVVVEGGPKAQKKFKRLMLHRIKWDEQTSNTKGDDDEESDEEAVKKTNKCVLVWEGTAKDRSFGEMKFKQCPTENMAREHFKKHGAEHYWDLALSESVLESTD
B6: Programmed cell death protein 4 (protein, UniProt Q53EL6 1-469)
chain: MDVENEQILNVNPADPDNLSDSLFSGDEENAGTEEIKNEINGNWISASSINEARINAKAKRRLRKNSSRDSGRGDSVSDSGSDALRSGLTVPTSPKGRLLDRRSRSGKGRGLPKKGGAGGKGVWGTPGQVYDVEEVDVKDPNYDDDQENCVYETVVLPLDERAFEKTLTPIIQEYFEHGDTNEVAEMLRDLNLGEMKSGVPVLAVSLALEGKASHREMTSKLLSDLCGTVMSTTDVEKSFDKLLKDLPELALDTPRAPQLVGQFIARAVGDGILCNTYIDSYKGTVDCVQARAALDKATVLLSMSKGGKRKDSVWGSGGGQQSVNHLVKEIDMLLKEYLLSGDISEAEHCLKELEVPHFHHELVYEAIIMVLESTGESTFKMILDLLKSLWKSSTITVDQMKRGYERIYNEIPDINLDVPHSYSVLERFVEECFQAGIISKQLRDLCPSRGRKRFVSEGDGGRLKPESY
B7: Proliferation-associated protein 2G4 (protein, UniProt Q9UQ80 1-394)
chain: MSGEDEQQEQTIAEDLVVTKYKMGGDIANRVLRSLVEASSSGVSVLSLCEKGDAMIMEETGKIFKKEKEMKKGIAFPTSISVNNCVCHFSPLKSDQDYILKEGDLVKIDLGVHVDGFIANVAHTFVVDVAQGTQVTGRKADVIKAAHLCAEAALRLVKPGNQNTQVTEAWNKVAHSFNCTPIEGMLSHQLKQHVIDGEKTIIQNPTDQQKKDHEKAEFEVHEVYAVDVLVSSGEGKAKDAGQRTTIYKRDPSKQYGLKMKTSRAFFSEVERRFDAMPFTLRAFEDEKKARMGVVECAKHELLQPFNVLYEKEGEFVAQFKFTVLLMPNGPMRITSGPFEPDLYKSEMEVQDAELKALLQSSASRKTQKKKKKKASKTAENATSGETLEENEAGD
B8: Pre-mRNA-processing factor 6 (protein, UniProt O94906 1-941)
chain: MNKKKKPFLGMPAPLGYVPGLGRGATGFTTRSDIGPARDANDPVDDRHAPPGKRTVGDQMKKNQAADDDDEDLNDTNYDEFNGYAGSLFSSGPYEKDDEEADAIYAALDKRMDERRKERREQREKEEIEKYRMERPKIQQQFSDLKRKLAEVTEEEWLSIPEVGDARNKRQRNPRYEKLTPVPDSFFAKHLQTGENHTSVDPRQTQFGGLNTPYPGGLNTPYPGGMTPGLMTPGTGELDMRKIGQARNTLMDMRLSQVSDSVSGQTVVDPKGYLTDLNSMIPTHGGDINDIKKARLLLKSVRETNPHHPPAWIASARLEEVTGKLQVARNLIMKGTEMCPKSEDVWLEAARLQPGDTAKAVVAQAVRHLPQSVRIYIRAAELETDIRAKKRVLRKALEHVPNSVRLWKAAVELEEPEDARIMLSRAVECCPTSVELWLALARLETYENARKVLNKARENIPTDRHIWITAAKLEEANGNTQMVEKIIDRAITSLRANGVEINREQWIQDAEECDRAGSVATCQAVMRAVIGIGIEEEDRKHTWMEDADSCVAHNALECARAIYAYALQVFPSKKSVWLRAAYFEKNHGTRESLEALLQRAVAHCPKAEVLWLMGAKSKWLAGDVPAARSILALAFQANPNSEEIWLAAVKLESENDEYERARRLLAKARSSAPTARVFMKSVKLEWVQDNIRAAQDLCEEALRHYEDFPKLWMMKGQIEEQKEMMEKAREAYNQGLKKCPHSTPLWLLLSRLEEKIGQLTRARAILEKSRLKNPKNPGLWLESVRLEYRAGLKNIANTLMAKALQECPNSGILWSEAIFLEARPQRRTKSVDALKKCEHDPHVLLAVAKLFWSQRKITKAREWFHRTVKIDSDLGDAWAFFYKFELQHGTEEQQEEVRKRCESAEPRHGELWCAVSKDIANWQKKIGDILRLVAGRIKNTF
B9: Coiled-coil domain-containing protein 124 (protein, UniProt Q96CT7 1-223)
chain: MPKKFQGENTKSAAARARRAEAKAAADAKKQKELEDAYWKDDDKHVMRKEQRKEEKEKRRLDQLERKKETQRLLEEEDSKLKGGKAPRVATSSKVTRAQIEDTLRRDHQLREAPDTAEKAKSHLEVPLEENVNRRVLEEGSVEARTIEDAIAVLSVAEEAADRHPERRMRAAFTAFEEAQLPRLKQENPNMRLSQLKQLLKKEWLRSPDNPMNQRAVPFNAPK
B10: Ribose-phosphate pyrophosphokinase 1 (protein, UniProt P60891 1-318)
chain: MPNIKIFSGSSHQDLSQKIADRLGLELGKVVTKKFSNQETCVEIGESVRGEDVYIVQSGCGEINDNLMELLIMINACKIASASRVTAVIPCFPYARQDKKDKSRAPISAKLVANMLSVAGADHIITMDLHASQIQGFFDIPVDNLYAEPAVLKWIRENISEWRNCTIVSPDAGGAKRVTSIADRLNVDFALIHKERKKANEVDRMVLVGDVKDRVAILVDDMADTCGTICHAADKLLSAGATRVYAILTHGIFSGPAISRINNACFEAVVVTNTIPQEDKMKHCSKIQVIDISMILAEAIRRTHNGESVSYLFSHVPL
B11: Phosphoribosyl pyrophosphate synthase-associated protein 2 (protein, UniProt O60256 1-369)
chain: MFCVTPPELETKMNITKGGLVLFSANSNSSCMELSKKIAERLGVEMGKVQVYQEPNRETRVQIQESVRGKDVFIIQTVSKDVNTTIMELLIMVYACKTSCAKSIIGVIPYFPYSKQCKMRKRGSIVSKLLASMMCKAGLTHLITMDLHQKEIQGFFNIPVDNLRASPFLLQYIQEEIPDYRNAVIVAKSPASAKRAQSFAERLRLGIAVIHGEAQDAESDLVDGRHSPPMVRSVAAIHPSLEIPMLIPKEKPPITVVGDVGGRIAIIVDDIIDDVDSFLAAAETLKERGAYKIFVMATHGLLSSDAPRRIEESAIDEVVVTNTIPHEVQKLQCPKIKTVDISMILSEAIRRIHNGESMSYLFRNIGLDD

Results are given in words; binding and its absence hold for the method and conditions named. In cells and extracts the contact can be indirect. A yes stands for co-enrichment or nearness to the bait. Other partners may have been found.

For the assay, the target named is T1, E3 ubiquitin-protein ligase Midline-1 (UniProt O15344).
T1 sequence: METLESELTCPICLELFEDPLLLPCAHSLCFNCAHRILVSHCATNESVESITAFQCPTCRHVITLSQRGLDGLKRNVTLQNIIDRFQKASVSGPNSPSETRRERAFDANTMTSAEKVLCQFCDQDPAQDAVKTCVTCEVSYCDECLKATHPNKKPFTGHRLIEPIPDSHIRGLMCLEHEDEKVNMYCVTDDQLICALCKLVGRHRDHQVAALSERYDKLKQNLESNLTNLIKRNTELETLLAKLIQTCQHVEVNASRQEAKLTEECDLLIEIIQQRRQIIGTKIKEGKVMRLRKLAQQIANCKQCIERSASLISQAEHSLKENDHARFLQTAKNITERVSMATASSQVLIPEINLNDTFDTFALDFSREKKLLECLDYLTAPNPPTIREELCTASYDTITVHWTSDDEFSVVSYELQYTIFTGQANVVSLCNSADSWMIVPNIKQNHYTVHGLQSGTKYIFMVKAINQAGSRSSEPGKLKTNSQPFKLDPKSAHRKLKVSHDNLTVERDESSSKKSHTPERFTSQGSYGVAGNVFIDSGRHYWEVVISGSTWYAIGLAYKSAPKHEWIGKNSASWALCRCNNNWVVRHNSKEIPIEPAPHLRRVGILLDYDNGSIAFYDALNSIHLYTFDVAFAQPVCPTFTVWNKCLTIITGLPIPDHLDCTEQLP
Nature of the assay: affinity purification with mass spectrometry; MID1-FLAG expressed in HEK293T, lysate in TKM buffer (20 mM Tris pH 7.4, 100 mM KCl, 5 mM MgCl2, 0.5% NP40, 1 mM DTT), anti-FLAG M1 agarose overnight at 4 °C, 6 washes; untransfected cells as control; Q-Exactive, MaxQuant, 1% FDR.
As to B1, the binding result is listed as “binds”. The result for B2 reads “binds”. As to B3, the binding result is recorded as “binds”. For the molecule B4, the binding entry is listed as “binds”. The result for B5 reads “binds”; that for B6, “binds”; that for B7, “binds”. In the case of B8 it was “binds”; in that of B9, “binds”; in that of B10, “binds”. In the case of B11 it was “binds”.
